Experimental data as given in paper doi:10.1101/2021.05.03.442108.
These are yes or no findings as the source states them, for the method shown. In cells and extracts the contact can be indirect. Some results given as binding are weak or reduced against the parent protein; the word gives no strength.

Target: IAA1 (Arabidopsis thaliana) (UniProt P49677)
Assay: split reporter

binding: binds
B1: IAA1 (protein, UniProt P49677 1-168)
chain: MEVTNGLNLKDTELRLGLPGAQEEQQLELSCVRSNNKRKNNDSTEESAPPPAKTQIVGWPPVRSNRKNNNNKNVSYVKVSMDGAPYLRKIDLKMYKNYPELLKALENMFKFTVGEYSEREGYKGSGFVPTYEDKDGDWMLVGDVPWDMFSSSCQKLRIMKGSEAPTAL
